Measured values as given in patent publication US20230346967A1.
No constants are given. Whether binding was seen depends on the method and setting. Some binding calls cover weakened binding; strength is not graded here.

Key:
[1] = molecular target: recombinant cynomolgus monkey (Macaca fascicularis) TfR1 (cynomolgus monkey (Macaca fascicularis)); assay: thermal stability, binding before and after 9 days at 40 C
[2] = molecular target: recombinant human TfR1 (human) (UniProt P02786); assay: as above

B1: humanized anti-TfR Fab 5H12 VH5 (C33Y)/Vκ4 (Fab, V domains shown)
VH: QVQLVQSGAEVKKPGASVKVSCKASGYSFTDYYINWVRQAPGQGLEWMGWIYPGSGNTRYSERFKGRVTITRDTSASTAYMELSSLRSEDTAVYYCAREDYYPYHGMDYWGQGTLVTVSS
VL: DIVMTQSPDSLAVSLGERATINCRASESVDGYDNSFMHWYQQKPGQPPKLLIFRASNLESGVPDRFSGSGSGTDFTLTISSLQAEDVAVYYCQQSSEDPWTFGQGTKLEIKR
- binding [1]: binds
- binding [2]: binds
